Experimental data: doi:10.1101/2021.04.04.438364
No constants are given. Whether binding was seen depends on the method and setting. In cells and extracts the contact can be indirect. Some binding calls cover weakened binding; strength is not graded here.

The chains behind the UniProt entries cited, without tags or fusion partners.
UniProt P39687: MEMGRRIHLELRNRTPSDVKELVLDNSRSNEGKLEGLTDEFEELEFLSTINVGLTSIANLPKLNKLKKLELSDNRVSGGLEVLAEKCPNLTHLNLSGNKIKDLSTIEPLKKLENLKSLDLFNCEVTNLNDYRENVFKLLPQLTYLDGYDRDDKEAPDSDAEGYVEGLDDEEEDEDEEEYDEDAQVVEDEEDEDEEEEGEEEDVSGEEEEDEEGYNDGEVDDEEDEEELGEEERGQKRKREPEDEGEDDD
UniProt P35222: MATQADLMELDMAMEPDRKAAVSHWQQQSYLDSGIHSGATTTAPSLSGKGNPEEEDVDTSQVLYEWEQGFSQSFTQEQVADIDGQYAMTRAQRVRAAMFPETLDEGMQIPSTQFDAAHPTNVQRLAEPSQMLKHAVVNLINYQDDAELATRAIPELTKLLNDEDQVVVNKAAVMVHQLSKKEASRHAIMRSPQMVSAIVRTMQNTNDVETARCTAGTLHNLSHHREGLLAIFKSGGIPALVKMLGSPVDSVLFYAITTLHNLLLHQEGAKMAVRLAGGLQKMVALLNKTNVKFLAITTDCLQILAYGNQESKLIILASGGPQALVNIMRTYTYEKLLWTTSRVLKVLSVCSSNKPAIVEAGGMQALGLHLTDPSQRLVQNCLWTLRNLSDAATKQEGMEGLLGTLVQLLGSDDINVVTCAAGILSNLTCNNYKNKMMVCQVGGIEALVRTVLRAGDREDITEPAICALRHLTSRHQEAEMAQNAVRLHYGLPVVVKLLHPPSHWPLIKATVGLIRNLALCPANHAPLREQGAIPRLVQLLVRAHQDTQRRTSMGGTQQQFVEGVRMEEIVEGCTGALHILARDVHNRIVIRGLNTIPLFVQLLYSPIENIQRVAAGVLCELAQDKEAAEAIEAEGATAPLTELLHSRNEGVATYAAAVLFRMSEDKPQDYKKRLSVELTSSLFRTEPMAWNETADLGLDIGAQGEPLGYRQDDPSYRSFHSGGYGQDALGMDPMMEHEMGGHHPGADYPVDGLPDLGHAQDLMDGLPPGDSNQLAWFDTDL
UniProt O15169: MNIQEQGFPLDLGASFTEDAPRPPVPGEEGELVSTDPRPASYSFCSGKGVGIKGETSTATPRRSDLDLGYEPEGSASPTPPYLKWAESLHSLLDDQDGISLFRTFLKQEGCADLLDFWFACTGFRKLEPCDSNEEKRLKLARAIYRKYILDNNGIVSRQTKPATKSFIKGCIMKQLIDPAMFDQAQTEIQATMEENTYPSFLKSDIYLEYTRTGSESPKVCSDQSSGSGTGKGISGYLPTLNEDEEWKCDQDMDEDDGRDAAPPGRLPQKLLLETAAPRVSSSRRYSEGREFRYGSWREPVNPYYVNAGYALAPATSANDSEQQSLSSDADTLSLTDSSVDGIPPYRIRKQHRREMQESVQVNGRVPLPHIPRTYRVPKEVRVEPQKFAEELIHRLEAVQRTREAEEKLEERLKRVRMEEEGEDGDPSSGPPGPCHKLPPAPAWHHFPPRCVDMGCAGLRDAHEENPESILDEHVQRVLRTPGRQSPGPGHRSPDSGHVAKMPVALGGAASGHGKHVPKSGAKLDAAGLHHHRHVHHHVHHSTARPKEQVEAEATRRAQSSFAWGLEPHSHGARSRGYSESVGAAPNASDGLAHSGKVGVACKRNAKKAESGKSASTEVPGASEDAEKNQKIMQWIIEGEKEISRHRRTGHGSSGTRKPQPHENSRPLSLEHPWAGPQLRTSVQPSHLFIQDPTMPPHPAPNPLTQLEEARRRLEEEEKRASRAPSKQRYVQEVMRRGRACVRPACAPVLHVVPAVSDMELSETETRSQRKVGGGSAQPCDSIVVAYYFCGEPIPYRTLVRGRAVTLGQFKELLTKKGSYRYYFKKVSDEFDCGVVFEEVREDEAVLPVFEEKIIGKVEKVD

Biological target: acidic leucine rich nuclear phosphoprotein-32A (ANP32A) (human (endogenous in human articular chondrocytes)) (UniProt P39687)
Assay: co-IP

| binding | Substance |
| --- | --- |
| binds | β-catenin (from UniProt P35222 1-781) |
| binds | AXIN1 (from UniProt O15169 1-862) |
